# Some of the results follow.
# Sequences of proteins named here, by UniProt entry; tags and fusion partners are left off. A change or cut given only in a name is not applied to a line headed by its entry.
# UniProt O15397, whole entry, looked up: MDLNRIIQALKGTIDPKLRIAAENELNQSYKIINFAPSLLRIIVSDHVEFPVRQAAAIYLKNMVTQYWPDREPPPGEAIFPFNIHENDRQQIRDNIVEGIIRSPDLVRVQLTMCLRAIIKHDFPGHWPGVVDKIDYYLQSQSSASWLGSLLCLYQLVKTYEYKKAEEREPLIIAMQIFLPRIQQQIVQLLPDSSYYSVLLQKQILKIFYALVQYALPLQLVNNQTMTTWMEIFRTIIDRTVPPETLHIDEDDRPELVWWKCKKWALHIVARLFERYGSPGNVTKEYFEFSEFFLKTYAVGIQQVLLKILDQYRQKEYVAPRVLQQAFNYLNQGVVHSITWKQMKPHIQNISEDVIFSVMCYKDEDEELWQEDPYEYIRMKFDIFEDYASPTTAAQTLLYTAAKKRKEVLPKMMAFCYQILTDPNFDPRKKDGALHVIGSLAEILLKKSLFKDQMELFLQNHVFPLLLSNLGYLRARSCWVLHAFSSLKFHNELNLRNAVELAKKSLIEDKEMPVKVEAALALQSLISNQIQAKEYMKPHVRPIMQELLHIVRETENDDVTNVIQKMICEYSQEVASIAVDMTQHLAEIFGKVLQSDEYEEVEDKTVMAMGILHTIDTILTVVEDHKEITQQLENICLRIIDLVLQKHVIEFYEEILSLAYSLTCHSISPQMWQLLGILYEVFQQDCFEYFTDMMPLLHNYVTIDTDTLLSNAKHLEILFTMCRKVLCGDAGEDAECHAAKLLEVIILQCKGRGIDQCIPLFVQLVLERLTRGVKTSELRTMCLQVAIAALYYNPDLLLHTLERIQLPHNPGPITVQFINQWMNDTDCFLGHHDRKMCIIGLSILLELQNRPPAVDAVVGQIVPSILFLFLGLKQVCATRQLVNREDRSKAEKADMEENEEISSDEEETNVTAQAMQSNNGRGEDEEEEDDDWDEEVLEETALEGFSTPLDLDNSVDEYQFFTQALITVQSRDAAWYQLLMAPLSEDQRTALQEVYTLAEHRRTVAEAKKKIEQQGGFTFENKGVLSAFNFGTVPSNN
# UniProt Q92551: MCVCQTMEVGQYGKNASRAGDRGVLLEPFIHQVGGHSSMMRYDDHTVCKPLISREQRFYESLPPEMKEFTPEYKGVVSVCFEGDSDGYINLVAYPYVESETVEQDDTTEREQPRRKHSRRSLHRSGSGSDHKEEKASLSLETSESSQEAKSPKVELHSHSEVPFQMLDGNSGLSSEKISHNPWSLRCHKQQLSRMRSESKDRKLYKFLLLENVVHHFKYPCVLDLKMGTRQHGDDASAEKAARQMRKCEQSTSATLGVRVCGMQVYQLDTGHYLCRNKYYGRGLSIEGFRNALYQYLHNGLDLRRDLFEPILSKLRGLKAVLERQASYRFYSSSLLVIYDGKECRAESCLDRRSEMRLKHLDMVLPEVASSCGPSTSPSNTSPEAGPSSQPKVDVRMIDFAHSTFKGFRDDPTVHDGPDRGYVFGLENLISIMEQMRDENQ
# UniProt Q14643, whole entry, looked up: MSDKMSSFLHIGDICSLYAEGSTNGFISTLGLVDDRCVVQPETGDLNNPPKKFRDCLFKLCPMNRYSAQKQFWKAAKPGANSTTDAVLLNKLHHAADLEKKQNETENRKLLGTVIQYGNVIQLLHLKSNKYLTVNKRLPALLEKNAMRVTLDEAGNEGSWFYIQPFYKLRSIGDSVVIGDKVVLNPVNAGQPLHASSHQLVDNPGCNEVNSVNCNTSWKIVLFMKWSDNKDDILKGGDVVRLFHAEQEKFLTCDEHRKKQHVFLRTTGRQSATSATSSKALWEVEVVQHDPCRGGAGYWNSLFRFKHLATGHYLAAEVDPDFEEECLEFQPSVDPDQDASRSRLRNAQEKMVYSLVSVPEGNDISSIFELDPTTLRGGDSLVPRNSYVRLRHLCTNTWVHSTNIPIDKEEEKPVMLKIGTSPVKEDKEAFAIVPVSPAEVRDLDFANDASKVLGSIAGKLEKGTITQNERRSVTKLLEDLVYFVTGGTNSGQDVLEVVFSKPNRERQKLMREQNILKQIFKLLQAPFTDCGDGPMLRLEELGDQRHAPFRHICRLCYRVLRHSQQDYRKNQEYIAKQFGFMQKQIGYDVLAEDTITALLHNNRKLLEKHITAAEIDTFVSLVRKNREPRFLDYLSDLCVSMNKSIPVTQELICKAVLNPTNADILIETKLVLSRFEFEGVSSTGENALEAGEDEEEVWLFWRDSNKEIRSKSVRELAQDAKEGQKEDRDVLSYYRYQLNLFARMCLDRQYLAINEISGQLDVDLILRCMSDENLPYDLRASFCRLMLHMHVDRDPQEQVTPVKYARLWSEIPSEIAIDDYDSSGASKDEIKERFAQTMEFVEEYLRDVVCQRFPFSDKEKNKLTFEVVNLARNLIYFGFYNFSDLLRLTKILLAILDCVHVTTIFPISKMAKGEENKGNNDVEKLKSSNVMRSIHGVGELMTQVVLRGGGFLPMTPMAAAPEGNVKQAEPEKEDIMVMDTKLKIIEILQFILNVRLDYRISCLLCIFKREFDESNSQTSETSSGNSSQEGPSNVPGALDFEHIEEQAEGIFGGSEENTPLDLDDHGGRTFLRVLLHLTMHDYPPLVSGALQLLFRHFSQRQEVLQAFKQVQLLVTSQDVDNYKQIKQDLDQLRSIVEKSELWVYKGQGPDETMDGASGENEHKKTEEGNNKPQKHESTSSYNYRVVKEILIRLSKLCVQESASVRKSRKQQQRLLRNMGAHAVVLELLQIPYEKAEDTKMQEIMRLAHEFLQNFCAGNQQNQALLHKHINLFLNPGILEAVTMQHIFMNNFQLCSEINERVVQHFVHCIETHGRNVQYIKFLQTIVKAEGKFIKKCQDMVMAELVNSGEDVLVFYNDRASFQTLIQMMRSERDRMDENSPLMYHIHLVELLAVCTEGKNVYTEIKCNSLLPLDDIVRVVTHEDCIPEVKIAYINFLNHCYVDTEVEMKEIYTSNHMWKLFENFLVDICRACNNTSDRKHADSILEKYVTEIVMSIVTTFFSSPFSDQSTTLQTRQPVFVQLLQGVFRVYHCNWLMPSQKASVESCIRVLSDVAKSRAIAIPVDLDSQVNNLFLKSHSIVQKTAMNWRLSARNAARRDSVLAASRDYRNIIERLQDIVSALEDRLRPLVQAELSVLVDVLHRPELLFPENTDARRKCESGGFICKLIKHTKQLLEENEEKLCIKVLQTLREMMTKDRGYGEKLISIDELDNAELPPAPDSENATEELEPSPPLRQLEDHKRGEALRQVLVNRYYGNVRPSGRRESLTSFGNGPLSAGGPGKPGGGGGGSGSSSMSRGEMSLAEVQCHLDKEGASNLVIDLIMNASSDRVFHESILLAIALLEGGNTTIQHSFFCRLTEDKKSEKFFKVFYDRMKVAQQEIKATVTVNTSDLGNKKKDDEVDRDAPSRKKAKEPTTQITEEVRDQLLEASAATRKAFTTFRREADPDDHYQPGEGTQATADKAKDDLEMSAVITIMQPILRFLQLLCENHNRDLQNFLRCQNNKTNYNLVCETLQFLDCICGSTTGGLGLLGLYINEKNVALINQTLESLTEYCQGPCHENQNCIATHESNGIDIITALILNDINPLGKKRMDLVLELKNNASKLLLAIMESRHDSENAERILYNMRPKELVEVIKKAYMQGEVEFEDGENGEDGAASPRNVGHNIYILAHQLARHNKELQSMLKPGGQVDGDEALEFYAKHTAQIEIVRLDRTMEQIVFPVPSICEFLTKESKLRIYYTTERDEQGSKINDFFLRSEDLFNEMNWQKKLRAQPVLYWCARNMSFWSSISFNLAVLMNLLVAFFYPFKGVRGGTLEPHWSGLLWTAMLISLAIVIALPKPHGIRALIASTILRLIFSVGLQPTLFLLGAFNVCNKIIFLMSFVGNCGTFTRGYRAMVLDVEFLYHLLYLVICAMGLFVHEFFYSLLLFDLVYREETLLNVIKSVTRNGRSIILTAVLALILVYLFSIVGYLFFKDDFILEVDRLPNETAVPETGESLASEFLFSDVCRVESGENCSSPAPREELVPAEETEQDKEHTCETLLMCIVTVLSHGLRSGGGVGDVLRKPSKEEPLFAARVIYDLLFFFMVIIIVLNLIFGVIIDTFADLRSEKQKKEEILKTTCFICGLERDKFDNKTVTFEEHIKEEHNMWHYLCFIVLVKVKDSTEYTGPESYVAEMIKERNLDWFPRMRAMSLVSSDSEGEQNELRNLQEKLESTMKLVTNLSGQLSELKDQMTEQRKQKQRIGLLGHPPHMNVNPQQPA
# UniProt Q9NQS7, whole entry, looked up: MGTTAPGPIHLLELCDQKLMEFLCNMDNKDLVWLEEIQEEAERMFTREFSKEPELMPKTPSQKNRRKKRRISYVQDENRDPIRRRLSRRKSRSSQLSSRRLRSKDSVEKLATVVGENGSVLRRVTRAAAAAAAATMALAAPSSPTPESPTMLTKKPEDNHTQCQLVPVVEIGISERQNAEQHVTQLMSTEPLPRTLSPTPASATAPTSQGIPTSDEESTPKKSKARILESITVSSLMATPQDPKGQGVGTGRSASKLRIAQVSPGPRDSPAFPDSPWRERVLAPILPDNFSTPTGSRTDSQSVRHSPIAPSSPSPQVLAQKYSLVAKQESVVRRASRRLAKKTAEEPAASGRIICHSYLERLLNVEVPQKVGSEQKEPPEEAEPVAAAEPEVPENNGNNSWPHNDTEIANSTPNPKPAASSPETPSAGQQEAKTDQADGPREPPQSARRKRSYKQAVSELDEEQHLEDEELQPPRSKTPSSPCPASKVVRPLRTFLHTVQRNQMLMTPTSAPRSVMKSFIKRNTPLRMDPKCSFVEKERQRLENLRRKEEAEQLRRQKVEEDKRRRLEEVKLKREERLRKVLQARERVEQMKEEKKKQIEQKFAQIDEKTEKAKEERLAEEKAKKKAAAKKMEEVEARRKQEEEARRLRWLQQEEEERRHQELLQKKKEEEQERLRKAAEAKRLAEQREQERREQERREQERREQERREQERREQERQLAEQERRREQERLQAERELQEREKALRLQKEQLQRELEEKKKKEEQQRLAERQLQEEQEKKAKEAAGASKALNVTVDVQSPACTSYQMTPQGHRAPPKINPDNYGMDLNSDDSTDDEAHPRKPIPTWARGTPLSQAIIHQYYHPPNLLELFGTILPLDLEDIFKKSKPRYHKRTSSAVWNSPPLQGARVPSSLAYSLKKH
# UniProt P28290: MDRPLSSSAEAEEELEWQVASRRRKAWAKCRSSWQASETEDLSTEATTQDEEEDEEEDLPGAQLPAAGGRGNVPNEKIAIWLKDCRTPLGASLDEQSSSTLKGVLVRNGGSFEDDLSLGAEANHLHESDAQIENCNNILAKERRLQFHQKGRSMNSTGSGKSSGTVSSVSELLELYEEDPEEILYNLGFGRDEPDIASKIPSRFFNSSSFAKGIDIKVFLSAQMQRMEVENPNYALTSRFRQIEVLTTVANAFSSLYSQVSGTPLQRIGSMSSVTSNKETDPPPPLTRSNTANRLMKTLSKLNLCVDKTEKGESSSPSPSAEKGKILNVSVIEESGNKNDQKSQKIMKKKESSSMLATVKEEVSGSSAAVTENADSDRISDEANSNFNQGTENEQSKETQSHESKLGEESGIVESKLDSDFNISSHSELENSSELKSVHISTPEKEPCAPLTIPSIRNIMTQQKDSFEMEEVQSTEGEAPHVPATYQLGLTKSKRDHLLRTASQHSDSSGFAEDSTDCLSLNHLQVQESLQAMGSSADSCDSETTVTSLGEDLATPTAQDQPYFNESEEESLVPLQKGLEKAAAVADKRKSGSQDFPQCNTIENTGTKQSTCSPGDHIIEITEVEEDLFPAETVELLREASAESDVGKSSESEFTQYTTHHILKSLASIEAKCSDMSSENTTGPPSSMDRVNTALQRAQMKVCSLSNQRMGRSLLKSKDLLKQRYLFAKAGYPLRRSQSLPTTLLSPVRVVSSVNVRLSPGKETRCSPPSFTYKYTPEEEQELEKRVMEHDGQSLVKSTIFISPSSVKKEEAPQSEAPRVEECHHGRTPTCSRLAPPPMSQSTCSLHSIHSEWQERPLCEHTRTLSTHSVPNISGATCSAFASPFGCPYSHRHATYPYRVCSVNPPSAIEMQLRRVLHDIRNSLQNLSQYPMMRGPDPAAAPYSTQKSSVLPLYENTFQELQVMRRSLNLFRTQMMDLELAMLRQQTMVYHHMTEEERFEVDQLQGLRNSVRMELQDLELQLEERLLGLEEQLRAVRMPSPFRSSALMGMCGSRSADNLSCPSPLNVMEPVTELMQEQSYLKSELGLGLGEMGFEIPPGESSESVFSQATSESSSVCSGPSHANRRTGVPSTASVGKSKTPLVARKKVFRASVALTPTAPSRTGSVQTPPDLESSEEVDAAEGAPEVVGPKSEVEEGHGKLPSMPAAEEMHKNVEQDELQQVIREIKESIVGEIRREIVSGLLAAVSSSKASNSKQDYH
# Key:
# Test in all cases: log2 fold change, soluble protein after heating vs DMSO (PISA); higher = thermal stabilisation; K562 cells, 10 uM, 30 min; active = over 0.2 and 3.5 SD of the protein, either way, in both replicates (recomputed)
# [1] = compound: COC1=CC=C(C=C1)CN2C=CC3=C2C=C(C=C3)C(=O)NO
# Summary of the method: (§1)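 Thermal stability values are relative to control samples and come from duplicates. They are expressed as log2 fold changes. For measurement, K562 cells (2×10^6 cells/mL) received 10 μM compound for 30 min, and aliquots were heated for 3 min over 48°C-58°C, pooled, and extracted at 4°C in PBS with 0.5% NP-40. Soluble protein, the supernatant after 21,000xg for 90 min, was quantified by TMTpro 16plex LC-MS/MS with equalised channel sums.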
# zotarolimus = compound: CO[C@H]1C[C@@H]2CC[C@@H](C)[C@@](O)(O2)C(=O)C(=O)N2CCCC[C@H]2C(=O)O[C@H]([C@H](C)C[C@@H]2CC[C@H](n3cnnn3)[C@H](OC)C2)CC(=O)[C@H](C)/C=C(\C)[C@@H](O)[C@@H](OC)C(=O)[C@H](C)C[C@H](C)/C=C/C=C/C=C/1C [zotarolimus]
# Summary of the method: as §1
# idasanutlin = compound: COc1cc(C(=O)O)ccc1NC(=O)[C@@H]1N[C@@H](CC(C)(C)C)[C@](C#N)(c2ccc(Cl)cc2F)[C@H]1c1cccc(Cl)c1F [idasanutlin]
# Summary of the method: as §1
# alisertib = compound: COc1cc(Nc2ncc3c(n2)-c2ccc(Cl)cc2C(c2c(F)cccc2OC)=NC3)ccc1C(=O)O [alisertib]
# Summary of the method: as §1
# [2] = compound: COc1cc2nc(-c3cc(F)ccc3O)nc(N[C@@H]3CNC[C@H]3C(C)(C)O)c2cc1OC
# Summary of the method: as §1
# [3] = compound: COc1cccc2cc(-c3nc([C@H]4CC[C@H](C(=O)O)CC4)n4ncnc(N)c34)[nH]c12
# Summary of the method: as §1
# lapatinib = compound: CS(=O)(=O)CCNCc1ccc(-c2ccc3ncnc(Nc4ccc(OCc5cccc(F)c5)c(Cl)c4)c3c2)o1 [lapatinib]
# Summary of the method: as §1
# pictilisib = compound: CS(=O)(=O)N1CCN(Cc2cc3nc(-c4cccc5[nH]ncc45)nc(N4CCOCC4)c3s2)CC1 [pictilisib]
# Summary of the method: as §1
# crizotinib = compound: C[C@@H](Oc1cc(-c2cnn(C3CCNCC3)c2)cnc1N)c1c(Cl)ccc(F)c1Cl [crizotinib]
# Summary of the method: as §1
# [4] = compound: C[C@@H]1COCCN1C2=NC(=NC(=C2)C3(CC3)S(=O)(=O)C)C4=C5C=CNC5=CC=C4
# Summary of the method: as §1
# [5] = compound: C[C@H](C1=CC=C(C=C1)C(=O)NC2=C3C=CNC3=NC=C2)N
# Summary of the method: as §1
# duvelisib = compound: C[C@H](Nc1ncnc2nc[nH]c12)c1cc2cccc(Cl)c2c(=O)n1-c1ccccc1 [duvelisib]
# Summary of the method: as §1
# gandotinib = compound: Cc1cc(Nc2cc(CN3CCOCC3)c3nc(C)c(Cc4ccc(Cl)cc4F)n3n2)n[nH]1 [gandotinib]
# Summary of the method: as §1
# tozasertib = compound: Cc1cc(Nc2cc(N3CCN(C)CC3)nc(Sc3ccc(NC(=O)C4CC4)cc3)n2)n[nH]1 [tozasertib]
# Summary of the method: as §1
# [6] = compound: Cc1cc(SCc2sc(-c3ccc(C(F)(F)F)cc3)nc2C)ccc1OCC(=O)O
# Summary of the method: as §1
# doramapimod = compound: Cc1ccc(-n2nc(C(C)(C)C)cc2NC(=O)Nc2ccc(OCCN3CCOCC3)c3ccccc23)cc1 [doramapimod]
# Summary of the method: as §1
# ispinesib = compound: Cc1ccc(C(=O)N(CCCN)[C@@H](c2nc3cc(Cl)ccc3c(=O)n2Cc2ccccc2)C(C)C)cc1 [ispinesib]
# Summary of the method: as §1
# filanesib = compound: CON(C)C(=O)N1N=C(c2cc(F)ccc2F)S[C@@]1(CCCN)c1ccccc1 [filanesib]
# Summary of the method: as §1
# [7] = compound: CS(=O)(=O)c1ccc(-c2cnc(N)c(C(=O)Nc3ccccc3)n2)cc1
# Summary of the method: as §1
# gefitinib = compound: COc1cc2ncnc(Nc3ccc(F)c(Cl)c3)c2cc1OCCCN1CCOCC1 [gefitinib]
# Summary of the method: as §1
Target,log2 fold change [1],log2 fold change (zotarolimus),log2 fold change (idasanutlin),log2 fold change (alisertib),log2 fold change [2],log2 fold change [3],log2 fold change (lapatinib),log2 fold change (pictilisib),log2 fold change (crizotinib),log2 fold change [4],log2 fold change [5],log2 fold change (duvelisib),log2 fold change (gandotinib),log2 fold change (tozasertib),log2 fold change [6],log2 fold change (doramapimod),log2 fold change (ispinesib),log2 fold change (filanesib),log2 fold change [7],log2 fold change (gefitinib)
IGSF8 (UniProt Q969P0),inactive: -0.027,inactive: 0.015,inactive: 0.067,inactive: -0.151,inactive: 0.045,inactive: 0.189,inactive: 0.035,inactive: 0.087,inactive: 0.159,inactive: 0.208,inactive: 0.043,inactive: -0.005,inactive: 0.132,inactive: -0.101,inactive: 0.187,inactive: -0.01,inactive: -0.09,,,
ISL2 (UniProt Q96A47),inactive: -0.305,inactive: 0.118,inactive: 0.015,,,,,inactive: -0.086,inactive: 0.083,,inactive: -0.355,,inactive: -0.001,,,inactive: 0.02,,,,
IPO8 (UniProt O15397),inactive: 0.034,inactive: 0.158,inactive: 0.105,,inactive: -0.068,,inactive: 0.02,,inactive: -0.17,inactive: -0.197,inactive: 0.348,inactive: -0.014,,inactive: 0.065,inactive: 0.004,inactive: 0.155,inactive: -0.069,inactive: 0.19,inactive: 0.008,
IP6K1 (UniProt Q92551),,inactive: 0.151,inactive: -0.044,inactive: 0.042,active: 1.11,inactive: 0.091,inactive: 0.128,inactive: 0.13,,inactive: -0.072,inactive: 0.295,,inactive: -0.145,,inactive: 0.23,,inactive: -0.437,inactive: 0.037,inactive: 0.129,
IKZF4 (UniProt Q9H2S9),,inactive: 0.042,inactive: 0.09,,inactive: -0.058,,inactive: -0.116,inactive: 0.139,,inactive: -0.107,inactive: -0.086,inactive: 0.095,inactive: -0.027,,inactive: 0.156,,inactive: 0.104,inactive: 0.06,inactive: -0.119,inactive: 0.119
IFNAR1 (UniProt P17181),inactive: 0.109,inactive: -0.249,,inactive: -0.07,inactive: 0.114,inactive: 0.046,inactive: -0.025,inactive: -0.058,inactive: -0.071,inactive: -0.02,inactive: 0.041,inactive: -0.025,inactive: -0.119,inactive: -0.034,inactive: 0.044,inactive: 0.023,inactive: 0.059,inactive: 0.003,inactive: 0.076,inactive: -0.053
IL10RB (UniProt Q08334),inactive: -0.161,,inactive: -0.008,,inactive: 0.048,,inactive: 0.011,inactive: 0.025,inactive: 0.009,inactive: -0.031,,,inactive: -0.238,,inactive: 0.089,inactive: -0.007,,inactive: 0.299,inactive: 0.004,inactive: 0.088
ITPKA (UniProt P23677),inactive: -0.312,,inactive: -0.235,inactive: -0.247,inactive: 0.119,inactive: -0.061,inactive: -0.201,inactive: -0.169,inactive: 0.027,inactive: -0.034,,inactive: -0.028,inactive: -0.381,inactive: -0.087,inactive: 0.134,inactive: -0.068,inactive: -0.212,inactive: -0.181,inactive: -0.037,inactive: 0.001
ITPR1 (UniProt Q14643),inactive: 0.167,inactive: 0.146,,,,,,,inactive: -0.031,inactive: 0.156,inactive: 0.198,,,,,inactive: -0.009,inactive: -0.275,,,
IKZF1 (UniProt R9R4D9),inactive: -0.167,inactive: -0.192,,,inactive: 0.084,,inactive: 0.037,inactive: 0.059,inactive: 0.028,,inactive: -0.078,,inactive: 0.244,,inactive: -0.12,inactive: 0.235,,,,
IKBKB (UniProt O14920),inactive: 0.138,inactive: 0.136,,inactive: -0.166,inactive: 0.062,inactive: 0.03,inactive: 0.158,,inactive: -0.574,inactive: -0.319,inactive: 0.367,inactive: -0.043,,inactive: 0.042,inactive: 0.097,inactive: 0.107,inactive: -0.038,inactive: 0.304,inactive: 0.229,inactive: -0.234
INCENP (UniProt Q9NQS7),inactive: -0.14,,,,,,,,inactive: 0.235,,,,,,,inactive: -0.586,inactive: -0.187,,,
ITGAE (UniProt P38570),inactive: 0.169,inactive: -0.285,,inactive: -0.16,inactive: 0.296,inactive: 0.149,inactive: -0.164,inactive: 0.097,inactive: -0.04,inactive: 0.063,inactive: 0.045,,inactive: 0.136,,,inactive: 0.04,inactive: -0.117,inactive: 0.09,inactive: 0.182,inactive: -0.007
ITPRID2 (UniProt P28290),inactive: 0,,,,inactive: 0.141,,inactive: -0.141,,inactive: -0.201,inactive: 0.229,,,,,,inactive: -0.056,inactive: -0.035,,,
ITGA2B (UniProt P08514),inactive: 0.004,inactive: -0.065,inactive: 0.138,,inactive: 0.074,,inactive: 0.033,active: -0.589,inactive: -0.068,inactive: -0.077,inactive: 0.045,,inactive: 0.283,,inactive: 0,inactive: 0.031,inactive: -0.088,inactive: 0.086,inactive: -0.076,inactive: -0.086
INPP5K (UniProt Q9BT40),inactive: -0.041,inactive: 0.032,,inactive: -0.13,,inactive: 0.135,,inactive: 0.08,inactive: -0.276,inactive: -0.072,inactive: 0.08,inactive: 0.226,inactive: 0.043,inactive: -0.177,inactive: -0.145,inactive: 0.133,inactive: -0.088,inactive: -0.248,inactive: -0.104,inactive: 0.111
ITPR3 (UniProt Q14573),inactive: 0.059,inactive: -0.02,,,,,,,inactive: -0.558,,inactive: 0.251,,,,,inactive: 0.127,,,,
IGFBP3 isoform 2 (UniProt P17936),inactive: 0.176,active: -1.02,inactive: 0.535,,inactive: -0.103,,inactive: 0.085,inactive: -0.085,inactive: -0.176,inactive: -0.063,inactive: -0.149,,inactive: -0.545,,inactive: 0.027,inactive: -0.243,,inactive: -0.272,inactive: -0.097,

# Part of the list above, showing only log2 fold change (ispinesib), log2 fold change (duvelisib) and log2 fold change (doramapimod).
Target	log2 fold change (ispinesib)	log2 fold change (duvelisib)	log2 fold change (doramapimod)
IGSF8 (UniProt Q969P0)	inactive: -0.09	inactive: -0.005	inactive: -0.01
ISL2 (UniProt Q96A47)			inactive: 0.02

# Source: the supplement of paper PMC10849652
